These results are taken from the supplement of paper PMC12819154, “High-throughput peptide-centric local stability assay extends protein–ligand identification to membrane proteins, tissues and bacteria” (Nature Structural & Molecular Biology, 2025).

By UniProt entry, the sequences of proteins in these tests, tags left out. Where a name states a change or a piece, a line headed by the entry shows the natural chain unless it says otherwise.
UniProt P08506: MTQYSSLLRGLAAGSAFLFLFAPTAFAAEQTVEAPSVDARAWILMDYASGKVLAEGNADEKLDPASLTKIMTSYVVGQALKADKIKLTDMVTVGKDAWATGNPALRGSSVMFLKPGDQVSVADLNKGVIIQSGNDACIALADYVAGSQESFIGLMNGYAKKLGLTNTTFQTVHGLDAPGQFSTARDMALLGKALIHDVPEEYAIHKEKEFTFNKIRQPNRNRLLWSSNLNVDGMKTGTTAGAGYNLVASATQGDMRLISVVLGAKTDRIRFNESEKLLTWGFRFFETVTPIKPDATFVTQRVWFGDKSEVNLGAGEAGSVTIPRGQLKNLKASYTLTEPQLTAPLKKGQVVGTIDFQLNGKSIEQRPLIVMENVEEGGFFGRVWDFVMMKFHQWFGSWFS
UniProt P06864: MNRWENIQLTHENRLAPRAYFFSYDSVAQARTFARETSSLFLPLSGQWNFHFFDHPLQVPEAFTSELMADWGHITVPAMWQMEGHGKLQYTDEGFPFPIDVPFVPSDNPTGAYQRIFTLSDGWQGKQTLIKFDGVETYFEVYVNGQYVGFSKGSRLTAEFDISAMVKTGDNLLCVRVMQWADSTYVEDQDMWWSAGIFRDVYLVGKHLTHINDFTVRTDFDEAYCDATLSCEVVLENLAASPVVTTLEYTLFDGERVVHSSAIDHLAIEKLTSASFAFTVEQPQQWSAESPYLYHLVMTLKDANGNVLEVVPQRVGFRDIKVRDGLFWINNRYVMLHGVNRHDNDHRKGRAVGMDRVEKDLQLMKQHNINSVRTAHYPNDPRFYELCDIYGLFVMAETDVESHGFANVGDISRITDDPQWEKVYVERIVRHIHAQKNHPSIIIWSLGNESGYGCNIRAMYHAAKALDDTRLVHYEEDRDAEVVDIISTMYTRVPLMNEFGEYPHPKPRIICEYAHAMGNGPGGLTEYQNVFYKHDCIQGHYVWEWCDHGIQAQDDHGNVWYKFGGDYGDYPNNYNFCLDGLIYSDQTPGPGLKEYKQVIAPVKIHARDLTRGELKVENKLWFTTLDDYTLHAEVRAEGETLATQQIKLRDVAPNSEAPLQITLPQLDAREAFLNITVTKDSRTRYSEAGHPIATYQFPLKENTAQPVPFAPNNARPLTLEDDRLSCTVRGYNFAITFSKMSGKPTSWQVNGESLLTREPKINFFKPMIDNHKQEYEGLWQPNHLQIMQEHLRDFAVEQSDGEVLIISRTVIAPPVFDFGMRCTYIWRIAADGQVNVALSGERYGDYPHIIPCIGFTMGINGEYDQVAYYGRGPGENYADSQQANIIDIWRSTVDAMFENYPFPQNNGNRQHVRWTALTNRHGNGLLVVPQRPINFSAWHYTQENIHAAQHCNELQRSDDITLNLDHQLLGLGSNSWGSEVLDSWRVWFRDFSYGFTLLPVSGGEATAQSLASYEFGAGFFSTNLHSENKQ

This is a selection; strong and weak results do not stand in their true shares. Most entries show no effect beyond the scatter of the controls.
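Further: lysate desalted by size exclusion to strip endogenous ATP, peptide intensities built from DIA-NN precursor signals, and peptides missing any value discarded before comparison.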

Compound in this assay: Nc1ncnc2c1ncn2[C@@H]1O[C@H](COP(=O)(O)OP(=O)(O)OP(=O)(O)O)[C@@H](O)[C@H]1O [adenosine 5'-triphosphate]
As to the kind of experiment: log2 fold change of tryptic peptide abundance, ligand vs vehicle (limited proteolysis) (log2 ratio); higher = more trypsin-susceptible (destabilized). The settings on record: ligand concentration: 5 mM; sample: E. coli desalted lysate; replicate design: treated before aliquoting. On the procedure: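 HT-PELSA: desalted E. coli K-12 BW25113 lysate (with 12 mM MgCl2) incubated with 5 mM ATP (pH 7) or water for 30 min at 25 C, then a 4 min trypsin pulse at 22 C. Peptides were quantified by DIA-MS (4 replicates). Value is the peptide log2 fold change (treated/control); negative = stabilized. Scale: negative = ligand-stabilized region.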
With “UniProt P08506 (peptide sequence: KLGLTNTTFQTVHGLDAPGQFSTAR, peptide start residue: 161)”, the log2 fold change came to 0.608.
For “UniProt P06864 (peptide sequence: VPLMNEFGEYPHPKPR, peptide start residue: 493)”, the log2 fold change amounted to 0.794.
